Data as given in US8729083B2, “Pyrazole compounds for controlling invertebrate pests” (BASF SE, priority 2008, dated 2014).
Some results were stated once for a whole list of compounds, not compound by compound.

Tests used:
Assay type in all cases: in vivo
Nilaparvata lugens = assay: Brown planthopper (Nilaparvata lugens), sprayed rice seedlings; conditions: 500 ppm, after 72 hours
Myzus persicae [1] = assay: Green peach aphid (Myzus persicae) through systemic means, artificial diet under membrane; conditions: 2500 ppm; pipetted into aphid diet; 3 days
From the text: II.9 Activity Against Green Peach Aphid (Myzus persicae)
For evaluating control of green peach aphid (Myzus persicae) through systemic means the test unit consisted of 96-well-microtiter plates containing liquid artificial diet under an artificial membrane.
The compounds were formulated using a solution containing 75% v/v water and 25% v/v DMSO. Different concentrations of formulated compounds were pipetted into the aphid diet, using a custom built pipetter, at two replications. After application, 5 to 8 adult aphids were placed on the artificial membrane inside the microtiter plate wells The aphids were then allowed to suck on the treated aphid diet and incubated at about 23+1° C. and about 50+5% relative humidity for 3 days. Aphid mortality and fecundity was then visually assessed.

Myzus persicae [2] = assay: Hydroponic test against green peach aphids (Myzus persicae), bare-root pepper plants; conditions: 100 ppm; bare roots immersed 24 hours; assay 3 days
Aphis gossypii [3] = assay: Hydroponic test against cotton aphids (Aphis gossypii), bare-root cotton plants; conditions: 100 ppm; bare roots immersed 24 hours; assay 3 days
Aphis gossypii [4] = assay: Cotton aphid (Aphis gossypii, mixed life stages), method a: cotyledon dip; conditions: 300 ppm; cotyledons dipped; after 5 days
Aphis craccivora = assay: Cowpea aphid (Aphis craccivora), spray on potted cowpea plants; conditions: 300 ppm; sprayed; population reduction assessed after 24, 72 and 120 hours
Description: II.3 Cowpea Aphid (Aphis craccivora)
The active compounds were formulated in 50:50 (vol:vol) acetone:water. The test solution was prepared at the day of use.
Potted cowpea plants colonized with 100-150 aphids of various stages were sprayed after the pest population had been recorded. Population reduction was assesed after 24, 72, and 120 hours.

Myzus persicae [5] = assay: Green peach aphid (Myzus persicae, mixed life stages), method a: leaf dip on pepper; conditions: 300 ppm; leaves dipped; after 5 days
Megoura viciae = assay: Vetch aphid (Megoura viciae), bean leaf disks in microtiterplates; conditions: test solution 2500 mg/L; leaf disks sprayed with 2.5 μl; 6 days
Description: II.5 Vetch Aphid (Megoura viciae)
The active compounds were formulated in 1:3 (vol:vol) DMSO:water with different concentrations of formulated compounds.
Bean leaf disks were placed into microtiterplates filled with 0.8% agar-agar and 2.5 ppm OPUS™. The leaf disks were sprayed with 2.5 μl of the test solution and 5 to 8 adult aphids were placed into the microtiterplates which were then closed and kept at 23±1° C. and 50±5% relative humidity under fluorescent light for 6 days. Mortality was assessed on the basis of vital, reproduced aphids. Aphid mortality and fecundity was then visually assessed.

Myzus persicae [6] = assay: Green peach aphid (Myzus persicae, mixed life stages), method b: electrostatic spray on bell pepper; conditions: 300 ppm; sprayed; after 5 days
Description: II.2 Green Peach Aphid (Myzus persicae, Mixed Life Stages)
(§1) The active compounds were formulated in cyclohexanone as a 10,0000 ppm solution supplied in 1.3 ml ABgene® tubes. These tubes were inserted into an automated electrostatic sprayer equipped with an atomizing nozzle and they served as stock solutions for which lower dilutions were made in 50% acetone:50% water (v/v). A nonionic surfactant (Kinetic®) was included in the solution at a volume of 0.01% (v/v).
Bell pepper plants at the first true-leaf stage were infested prior to treatment by placing heavily infested leaves from the main colony on top of the treatment plants. Aphids were allowed to transfer overnight to accomplish an infestation of 30-50 aphids per plant and the host leaves were removed. The infested plants were then sprayed by an automated electrostatic plant sprayer equipped with an atomizing spray nozzle. The plants were dried in the sprayer fume hood, removed, and then maintained in a growth room under fluorescent lighting in a 24-hr photoperiod at 25° C. and 20-40% relative humidity. Aphid mortality on the treated plants, relative to mortality on untreated control plants, was determined after 5 days.

Anthonomus grandis = assay: Boll weevil (Anthonomus grandis), eggs on insect diet in microtiter plates; conditions: test solution 2500 mg/L; 20 μl sprayed onto diet; 5 days
Description: II.6 Boll Weevil (Anthonomus grandis)
The compounds were formulated in 75:25 (vol:vol) water:DMSO.
For evaluating control of boll weevil (Anthonomus grandis) the test unit consisted of 24-well-microtiter plates containing an insect diet and 20-30 A. grandis eggs. Different concentrations of formulated compounds were sprayed onto the insect diet at 20 μl, using a custom built micro atomizer, at two replications. After application, the microtiter plates were incubated at 23±1° C. and 50±5% relative humidity for 5 days. Egg and larval mortality was then visually assessed.

Aphis gossypii [7] = assay: Cotton aphid (Aphis gossypii, mixed life stages), method b: electrostatic spray; conditions: 300 ppm; sprayed; after 5 days
Description: II.1 Cotton Aphid (Aphis gossypii, Mixed Life Stages)
as §1
Cotton plants at the cotyledon stage were infested with aphids prior to treatment by placing a heavily infested leaf from the main aphid colony on top of each cotyledon. Aphids were allowed to transfer overnight to accomplish an infestation of 80-100 aphids per plant and the host leaf was removed. The infested plants were then sprayed by an automated electrostatic plant sprayer equipped with an atomizing spray nozzle. The plants were dried in the sprayer fume hood, removed from the sprayer, and then maintained in a growth room under fluorescent lighting in a 24 hr photoperiod at 25° C. and 20-40% relative humidity. Aphid mortality on the treated plants, relative to mortality on untreated control plants, was determined after 5 days.

Bemisia argentifolii = assay: Silverleaf whitefly (Bemisia argentifolii, adult), method b: electrostatic spray; conditions: 300 ppm; sprayed; 3 days after treatment
Heliothis virescens = assay: Tobacco budworm (Heliothis virescens), eggs on insect diet in microtiter plates; conditions: 2500 ppm; 10 μl sprayed onto diet; 5 days
Ceratitis capitata = assay: Mediterranean fruitfly (Ceratitis capitata), eggs on insect diet in microtiter plates; conditions: 2500 ppm; 5 μl sprayed onto diet; 5 days

Row | SMILES | mortality in comparison with untreated controls (Myzus persicae [1]) | mortality in comparison with untreated controls (Aphis craccivora) | mortality (Megoura viciae) | mortality in comparison with untreated controls (Myzus persicae [6]) | mortality (egg and larval) (Anthonomus grandis) | mortality in comparison with untreated controls (Aphis gossypii [7]) | mortality in comparison with untreated controls (Bemisia argentifolii) | further results
1 | O=C(Nc1ccnnc1)c1cnn(CC(F)(F)F)c1Br [Compound 36] |  |  |  |  |  |  |  | mortality in comparison with untreated controls (Nilaparvata lugens): at least 50%
2 | Cn1ncc(C(=O)Nc2ccnnc2)c1C(F)F [Compound 2] | 100% | at least 90% | at least 90% |  |  |  |  | mortality in comparison with untreated controls (Myzus persicae [2]): at least 75%; mortality in comparison with untreated controls (Aphis gossypii [3]): at least 75%; mortality in comparison with untreated controls (Aphis gossypii [4]): at least 90%; mortality in comparison with untreated controls (Myzus persicae [5]): at least 90%
3 | Cc1c(C(=O)N(CCF)c2ccnnc2)cnn1CC(F)(F)F [Compound 118] |  |  |  |  |  |  |  | mortality in comparison with untreated controls (Nilaparvata lugens): at least 50%
4 | O=C(Nc1ccnnc1)c1cnn(C(F)(F)F)c1 [Compound 30] | 100% | at least 90% | at least 90% | at least 75% | at least 50% | at least 75% | at least 75% | mortality in comparison with untreated controls (egg and larval) (Heliothis virescens): at least 50%
5 | O=C(Nc1ccnnc1)c1cnn(-c2ccc(C(F)(F)F)cc2)c1C(F)(F)F [Compound 11] | 100% | at least 90% | at least 90% |  | at least 50% | at least 75% |  | mortality in comparison with untreated controls (egg and larval) (Heliothis virescens): at least 50%; mortality in comparison with untreated controls (egg and larval) (Ceratitis capitata): at least 50%
6 | Cn1cc(C(=O)Nc2ccnnc2)c(C(F)F)n1 [Compound 29] | 100% | at least 90% | at least 90% | at least 75% |  | at least 75% |  | mortality in comparison with untreated controls (Myzus persicae [2]): at least 75%; mortality in comparison with untreated controls (Aphis gossypii [3]): at least 75%
7 | Cc1c(C(=O)N(C)c2ccnnc2)cnn1-c1nncn1C [Compound 162] |  |  |  |  |  |  | at least 75% | 
8 | O=C(Nc1ccnnc1)c1cnn(-c2ccc(Cl)cc2)c1C(F)(F)F [Compound 21] |  |  | at least 90% |  | at least 50% |  |  | mortality in comparison with untreated controls (egg and larval) (Ceratitis capitata): at least 50%
9 | CCN(C)C(=O)c1c(C(=O)N(C)c2ccnnc2)cnn1CC(F)(F)F [Compound 136] |  |  |  | at least 75% |  |  | at least 75% | 
10 | Cc1c(C(=O)N(C)c2ccnnc2)cnn1CC(F)(F)F [Compound 28] | 100% | at least 90% | at least 90% | at least 75% |  | at least 75% | at least 75% | mortality in comparison with untreated controls (Myzus persicae [2]): at least 75%
11 | CC(C)Cn1cc(C(=O)Nc2ccnnc2)cn1 [Compound 31] | 100% | at least 90% | at least 90% | at least 75% |  | at least 75% | at least 75% | mortality in comparison with untreated controls (egg and larval) (Ceratitis capitata): at least 50%
12 | CCc1c(C(=O)Nc2ccnnc2)cnn1CC [Compound 6] |  | at least 90% | at least 90% | at least 75% |  | at least 75% |  | mortality in comparison with untreated controls (Myzus persicae [2]): at least 75%
13 | CCn1cc(C(=O)Nc2ccnnc2)cn1 [Compound 17] |  | at least 90% |  |  |  | at least 75% |  | mortality in comparison with untreated controls (Myzus persicae [2]): at least 75%; mortality in comparison with untreated controls (Aphis gossypii [3]): at least 75%
14 | O=C(Nc1ccnnc1)c1cnn(-c2ccc([N+](=O)[O-])cc2)c1C(F)F [Compound 13] | 100% |  | at least 90% | at least 75% | at least 50% | at least 75% |  | mortality in comparison with untreated controls (egg and larval) (Heliothis virescens): at least 50%; mortality in comparison with untreated controls (egg and larval) (Ceratitis capitata): at least 50%
15 | CN(C(=O)c1cnn(CC(F)(F)F)c1C(F)F)c1ccnnc1 [Compound 27] | 100% | at least 90% | at least 90% |  | at least 50% |  | at least 75% | mortality in comparison with untreated controls (Myzus persicae [2]): at least 75%
16 | O=C(Nc1ccnnc1)c1cnn(CC(F)(F)F)c1Cl [Compound 69] |  |  |  |  |  |  |  | mortality in comparison with untreated controls (Nilaparvata lugens): at least 50%
17 | O=C(Nc1ccnnc1)c1cnn(-c2ccc(Cl)cc2Cl)c1C(F)(F)F [Compound 20] | 100% | at least 90% | at least 90% |  | at least 50% |  |  | mortality in comparison with untreated controls (egg and larval) (Ceratitis capitata): at least 50%
18 | CN(C(=O)c1cnn(Cc2cn(C)nn2)c1C(F)F)c1ccnnc1 [Compound 237] |  |  |  | at least 75% |  |  | at least 75% | 
19 | CCn1ncc(C(=O)Nc2ccnnc2)c1C(F)(F)F [Compound 8] | 100% | at least 90% | at least 90% | at least 75% | at least 50% | at least 75% | at least 75% | 
20 | Cn1ncc(C(=O)Nc2ccnnc2)c1C(F)(F)F [Compound 35] |  |  |  |  |  |  |  | mortality in comparison with untreated controls (Nilaparvata lugens): at least 50%
21 | Cc1c(C(=O)Nc2ccnnc2)cnn1-c1ccc(F)cc1 [Compound 4] | 100% | at least 90% | at least 90% | at least 75% |  | at least 75% |  | mortality in comparison with untreated controls (Aphis gossypii [3]): at least 75%; mortality in comparison with untreated controls (Aphis gossypii [4]): at least 90%; mortality in comparison with untreated controls (egg and larval) (Ceratitis capitata): at least 50%; mortality in comparison with untreated controls (Myzus persicae [5]): at least 90%
